doi:10.1101/2023.08.23.554462
No constants are given. Whether binding was seen depends on the method and setting. In cells and extracts the contact can be indirect. Some binding calls cover weakened binding; strength is not graded here. Where a sequence is shown, tags or fusion partners need not be part of it. Blank lines part the entries; values can stand above or below the molecule they belong to.

Protein sequences, listed by entry. Tags and fused reporters are not part of them.
UniProt Q9UNE7: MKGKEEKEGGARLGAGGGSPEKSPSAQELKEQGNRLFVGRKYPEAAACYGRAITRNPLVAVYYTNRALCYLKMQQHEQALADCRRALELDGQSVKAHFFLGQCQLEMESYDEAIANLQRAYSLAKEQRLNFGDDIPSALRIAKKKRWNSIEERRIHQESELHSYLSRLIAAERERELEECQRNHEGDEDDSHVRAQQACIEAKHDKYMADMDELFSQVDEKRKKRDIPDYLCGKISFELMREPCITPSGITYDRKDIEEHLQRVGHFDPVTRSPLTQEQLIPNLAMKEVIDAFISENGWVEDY

What was measured:
[1] = target: T1, endogenous YTHDF1 with 2xFlag and Cherry at the C terminus (YTHDF1^Flag-Cherry) (human (endogenous in HEK293T)) (UniProt Q9BYJ9); assay: co-IP
T1 sequence: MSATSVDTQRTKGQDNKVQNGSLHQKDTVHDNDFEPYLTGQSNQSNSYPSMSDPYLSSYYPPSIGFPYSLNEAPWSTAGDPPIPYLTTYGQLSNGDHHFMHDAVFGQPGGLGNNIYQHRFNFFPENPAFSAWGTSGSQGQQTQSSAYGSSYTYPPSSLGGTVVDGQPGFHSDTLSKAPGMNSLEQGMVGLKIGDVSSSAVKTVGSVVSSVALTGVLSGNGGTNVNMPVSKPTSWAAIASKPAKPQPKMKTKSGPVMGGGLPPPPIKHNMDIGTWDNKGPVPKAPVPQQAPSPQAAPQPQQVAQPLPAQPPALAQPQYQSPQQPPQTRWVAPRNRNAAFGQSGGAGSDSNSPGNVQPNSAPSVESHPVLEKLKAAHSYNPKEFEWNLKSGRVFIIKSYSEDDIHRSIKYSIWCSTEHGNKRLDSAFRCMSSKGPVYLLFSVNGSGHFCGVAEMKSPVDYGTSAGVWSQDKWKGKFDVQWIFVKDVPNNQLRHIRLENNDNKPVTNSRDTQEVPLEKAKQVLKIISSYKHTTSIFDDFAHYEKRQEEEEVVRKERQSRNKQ

GST-YTHDF1 (human) = target: T2, GST-YTHDF1 (human) (UniProt Q9BYJ9); assay: pull-down
T2 sequence: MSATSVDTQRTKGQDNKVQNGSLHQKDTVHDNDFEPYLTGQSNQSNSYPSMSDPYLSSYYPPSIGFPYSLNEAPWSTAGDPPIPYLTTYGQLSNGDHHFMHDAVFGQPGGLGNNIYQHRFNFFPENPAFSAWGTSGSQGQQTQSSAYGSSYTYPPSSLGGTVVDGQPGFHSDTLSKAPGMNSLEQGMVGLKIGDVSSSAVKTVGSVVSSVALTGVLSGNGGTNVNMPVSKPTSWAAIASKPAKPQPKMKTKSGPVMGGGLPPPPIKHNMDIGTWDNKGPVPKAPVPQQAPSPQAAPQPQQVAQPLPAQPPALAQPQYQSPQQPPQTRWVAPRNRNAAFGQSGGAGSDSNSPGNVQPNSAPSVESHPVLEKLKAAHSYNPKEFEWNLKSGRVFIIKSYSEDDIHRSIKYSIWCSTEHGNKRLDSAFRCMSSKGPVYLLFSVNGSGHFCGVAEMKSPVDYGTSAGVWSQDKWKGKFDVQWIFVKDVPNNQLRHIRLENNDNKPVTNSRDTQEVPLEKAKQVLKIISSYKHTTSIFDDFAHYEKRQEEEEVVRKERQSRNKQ

Flag-YTHDF1 (human) = target: T3, Flag-YTHDF1 (human) (UniProt Q9BYJ9); assay: co-IP
T3 sequence: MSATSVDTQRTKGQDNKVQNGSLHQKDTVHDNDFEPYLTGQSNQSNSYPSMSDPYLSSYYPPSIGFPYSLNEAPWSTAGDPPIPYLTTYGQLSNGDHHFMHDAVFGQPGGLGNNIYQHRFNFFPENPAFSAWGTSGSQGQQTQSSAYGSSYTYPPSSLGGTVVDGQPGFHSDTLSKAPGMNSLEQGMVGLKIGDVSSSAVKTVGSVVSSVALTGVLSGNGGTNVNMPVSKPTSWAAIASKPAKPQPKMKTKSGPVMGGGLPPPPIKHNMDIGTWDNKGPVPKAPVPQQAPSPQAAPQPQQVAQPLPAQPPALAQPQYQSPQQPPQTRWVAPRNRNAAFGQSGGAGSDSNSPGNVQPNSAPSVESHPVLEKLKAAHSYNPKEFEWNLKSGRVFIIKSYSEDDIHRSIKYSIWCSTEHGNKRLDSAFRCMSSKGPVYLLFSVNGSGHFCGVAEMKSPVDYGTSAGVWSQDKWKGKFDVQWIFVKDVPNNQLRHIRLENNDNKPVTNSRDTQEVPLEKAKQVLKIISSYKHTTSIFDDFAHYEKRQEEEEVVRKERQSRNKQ

Flag-YTHDF2 (human) = target: T4, Flag-YTHDF2 (human) (UniProt Q9Y5A9); assay: co-IP
T4 sequence: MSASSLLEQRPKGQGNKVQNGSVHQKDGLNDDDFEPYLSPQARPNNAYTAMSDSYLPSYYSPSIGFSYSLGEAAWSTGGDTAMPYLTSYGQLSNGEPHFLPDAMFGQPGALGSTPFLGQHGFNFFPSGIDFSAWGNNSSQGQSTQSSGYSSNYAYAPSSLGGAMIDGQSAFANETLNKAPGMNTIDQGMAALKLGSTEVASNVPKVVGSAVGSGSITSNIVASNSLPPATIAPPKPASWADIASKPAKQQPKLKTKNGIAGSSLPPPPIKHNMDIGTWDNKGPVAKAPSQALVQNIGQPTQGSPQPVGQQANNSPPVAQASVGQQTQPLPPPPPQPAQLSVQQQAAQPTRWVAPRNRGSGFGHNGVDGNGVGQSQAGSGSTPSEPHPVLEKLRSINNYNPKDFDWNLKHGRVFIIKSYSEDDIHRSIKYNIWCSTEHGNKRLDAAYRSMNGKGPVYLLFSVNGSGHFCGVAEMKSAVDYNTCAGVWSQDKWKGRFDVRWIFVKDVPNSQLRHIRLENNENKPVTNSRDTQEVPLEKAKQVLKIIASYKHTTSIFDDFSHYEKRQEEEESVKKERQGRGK

[2] = target: T5, Flag-YTHDF1 YTH domain (human) (UniProt Q9BYJ9); assay: co-IP
T5 sequence: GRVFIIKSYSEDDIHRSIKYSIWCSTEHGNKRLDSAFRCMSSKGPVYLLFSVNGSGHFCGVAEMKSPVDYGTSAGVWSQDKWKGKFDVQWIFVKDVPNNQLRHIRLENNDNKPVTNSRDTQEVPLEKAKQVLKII

[3] = target: StrepII-STUB1, transfected in HEK293T cells (UniProt Q9UNE7); assay: co-IP

binding [1]: binds | binding (GST-YTHDF1 (human)): binds
Molecule: endogenous STUB1 (from UniProt Q9UNE7 1-303)

binding (Flag-YTHDF1 (human)): binds | binding (Flag-YTHDF2 (human)): binds | binding [2]: binds
Molecule: Myc-STUB1 (from UniProt Q9UNE7 1-303)

binding [3]: binds
B1: HA-YTHDF1 (protein, UniProt Q9BYJ9 1-559)
chain: MSATSVDTQRTKGQDNKVQNGSLHQKDTVHDNDFEPYLTGQSNQSNSYPSMSDPYLSSYYPPSIGFPYSLNEAPWSTAGDPPIPYLTTYGQLSNGDHHFMHDAVFGQPGGLGNNIYQHRFNFFPENPAFSAWGTSGSQGQQTQSSAYGSSYTYPPSSLGGTVVDGQPGFHSDTLSKAPGMNSLEQGMVGLKIGDVSSSAVKTVGSVVSSVALTGVLSGNGGTNVNMPVSKPTSWAAIASKPAKPQPKMKTKSGPVMGGGLPPPPIKHNMDIGTWDNKGPVPKAPVPQQAPSPQAAPQPQQVAQPLPAQPPALAQPQYQSPQQPPQTRWVAPRNRNAAFGQSGGAGSDSNSPGNVQPNSAPSVESHPVLEKLKAAHSYNPKEFEWNLKSGRVFIIKSYSEDDIHRSIKYSIWCSTEHGNKRLDSAFRCMSSKGPVYLLFSVNGSGHFCGVAEMKSPVDYGTSAGVWSQDKWKGKFDVQWIFVKDVPNNQLRHIRLENNDNKPVTNSRDTQEVPLEKAKQVLKIISSYKHTTSIFDDFAHYEKRQEEEEVVRKERQSRNKQ
